# Measured values published in PubChem BioAssay AID651640 (Broad Institute, 2012).
# About 6,000 (1.7%) of roughly 350,000 compounds were called active. The inconclusive results got no clear call from the source; some entries with a clear call stand among them for comparison. Cut-off read from the data, not from the text of the source: active = CPE inhibition above about 20% (passing the limit was not always enough); inconclusive = no clear call, values can overlap the other calls; tested in BHK-21 cells.
# Experiment: protection of cells from dengue 2 killing – plate reader, single concentration, primary screen (AID 651640);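 note: 0% = median of neutral control wells and 100% = median of positive control wells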
# Details: DENV2-infected cells, cytopathic effect rescue, at 9.99 µM, hits give high values
row,SMILES,CPE inhibition
1,Cc1ccc(S(=O)(=O)N2CCN(C(=O)COC(=O)/C=C/c3ccccc3F)CC2)c(C)c1,inconclusive: 56%
2,COc1cc(C(=O)Nc2cccc(S(=O)(=O)N3CCCC3)c2)c([N+](=O)[O-])cc1OC,inconclusive: 37.8%
3,COc1cccc(NC(=O)N[C@H]2C=C[C@H](CC(=O)N3CCN(C)CC3)O[C@H]2CO)c1,inactive: -0.282%
4,CCC(C(=O)OCCOCCN(CC)CC)c1ccccc1 (stereo not given),inconclusive: 22.3%
5,COc1cccc(OC)c1C(=O)N1CCN(Cc2c[nH]c3ccccc23)CC1,active: 54.6%
6,NC(=O)C1CCN(C(=S)c2ccc(-c3ccc(Br)cc3)o2)CC1,inactive: 19.4%
7,CO[C@H]1CN(C)C(=O)c2cc(NS(=O)(=O)c3ccccc3)ccc2OC[C@@H](C)N(C)C[C@H]1C,inactive: 5.36%
8,CCc1cc2c(COC(=O)c3cc(S(=O)(=O)N4CCOCC4)ccc3F)cc(=O)oc2cc1O,inconclusive: 62.2%
9,COc1ccc2c3c(n(C)c2c1)[C@H](CO)N(C(=O)C1CCC1)CC31CN(C(=O)CN(C)C)C1,inactive: -2.92%
10,CN1CCN(C(=O)C[C@H]2CC[C@@H]3[C@H](COC[C@@H](O)CN3Cc3ccc(Oc4ccccc4)cc3)O2)CC1,inactive: -8.92%
11,C=CCN1C(=O)[C@@]2(O[C@@H](CCn3cc([C@H](O)c4ccccc4)nn3)[C@H]([Si](C)(C)c3ccc(OC)cc3)[C@H]2C)c2cc(N3C(=O)c4cccc5cccc3c45)ccc21,inconclusive: 24.5%
12,COc1ncccc1C(=O)N1CCCC(N2CCN(c3ccc(F)cc3)CC2)C1 (stereo not given),inconclusive: 28.9%
13,C[C@@H]1CN([C@H](C)CO)C(=O)c2cc(-c3cccc(C(=O)N(C)C)c3)cnc2O[C@@H]1CN(C)C(=O)Cc1ccccn1,inactive: -0.511%
14,COc1ccc(CN(C)CCCn2ccc(N)nc2=O)cc1OC,inconclusive: 31.7%
15,O=Nc1ccc(Cl)cn1,active: 30.5%
16,Cc1cccc(OCCn2c(=O)n(C)c3ccccc32)c1,active: 68.9%
17,CCN(CC(=O)Nc1ccccc1OC)CC(=O)Nc1ccccc1-c1ccccc1,inconclusive: 39.5%
18,COc1ccc(S(=O)(=O)N(C)C[C@H]2OCCCC[C@H](C)Oc3ccc(NC(=O)Nc4cccc5ccccc45)cc3C(=O)N([C@H](C)CO)C[C@H]2C)cc1,inactive: 0.106%
19,CS(=O)(=O)N1[C@@H](C#N)[C@H](c2ccc(C#CC3CCCCC3)cc2)[C@@H]1CO,inactive: -6.42%
20,CCCCCCCCN1C(=O)[C@@H](CC(=O)NCc2ccc(C)o2)C[C@@]2(C(=O)OC)C1=C[C@H](C(C)(C)C)O[C@@H]2C,inconclusive: 23%

# Rewritten with tabs: part of the list above.
row	SMILES	CPE inhibition
11	C=CCN1C(=O)[C@@]2(O[C@@H](CCn3cc([C@H](O)c4ccccc4)nn3)[C@H]([Si](C)(C)c3ccc(OC)cc3)[C@H]2C)c2cc(N3C(=O)c4cccc5cccc3c45)ccc21	inconclusive: 24.5%
12	COc1ncccc1C(=O)N1CCCC(N2CCN(c3ccc(F)cc3)CC2)C1 (stereo not given)	inconclusive: 28.9%
13	C[C@@H]1CN([C@H](C)CO)C(=O)c2cc(-c3cccc(C(=O)N(C)C)c3)cnc2O[C@@H]1CN(C)C(=O)Cc1ccccn1	inactive: -0.511%
